Test results taken from the supplement of paper PMC10849652.
The list shows a part of the results.

The chains behind the UniProt entries cited, without tags or fusion partners. Where a name states a change or a piece, a line headed by the entry shows the natural chain unless it says otherwise.
UniProt Q15633: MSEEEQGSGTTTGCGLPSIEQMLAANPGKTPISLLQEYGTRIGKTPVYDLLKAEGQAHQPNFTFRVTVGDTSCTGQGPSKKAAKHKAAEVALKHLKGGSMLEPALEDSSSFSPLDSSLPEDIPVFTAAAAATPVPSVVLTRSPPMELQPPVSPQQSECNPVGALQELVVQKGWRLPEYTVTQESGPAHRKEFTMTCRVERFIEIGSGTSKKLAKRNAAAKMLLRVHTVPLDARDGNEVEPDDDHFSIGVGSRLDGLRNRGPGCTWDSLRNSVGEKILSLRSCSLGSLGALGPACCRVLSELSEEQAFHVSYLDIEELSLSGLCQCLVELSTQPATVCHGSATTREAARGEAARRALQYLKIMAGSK
UniProt Q99081: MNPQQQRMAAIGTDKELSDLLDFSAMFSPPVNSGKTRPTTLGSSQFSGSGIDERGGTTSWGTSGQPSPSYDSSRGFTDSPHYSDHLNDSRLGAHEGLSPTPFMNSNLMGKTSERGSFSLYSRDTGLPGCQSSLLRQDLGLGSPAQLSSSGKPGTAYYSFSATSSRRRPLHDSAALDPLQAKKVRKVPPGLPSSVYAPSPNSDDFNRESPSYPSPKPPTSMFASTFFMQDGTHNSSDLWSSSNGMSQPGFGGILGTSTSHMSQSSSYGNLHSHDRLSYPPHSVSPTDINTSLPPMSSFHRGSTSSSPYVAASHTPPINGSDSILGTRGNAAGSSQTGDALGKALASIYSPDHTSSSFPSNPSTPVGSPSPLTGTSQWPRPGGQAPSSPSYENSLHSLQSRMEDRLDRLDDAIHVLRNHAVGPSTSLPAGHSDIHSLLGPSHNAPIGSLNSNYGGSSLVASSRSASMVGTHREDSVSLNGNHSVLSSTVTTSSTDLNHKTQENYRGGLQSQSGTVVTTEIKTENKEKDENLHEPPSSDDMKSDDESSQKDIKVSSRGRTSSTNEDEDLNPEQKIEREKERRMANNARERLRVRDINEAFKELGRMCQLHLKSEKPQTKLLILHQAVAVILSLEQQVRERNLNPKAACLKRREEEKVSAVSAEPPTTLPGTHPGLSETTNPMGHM
UniProt Q9BYX2: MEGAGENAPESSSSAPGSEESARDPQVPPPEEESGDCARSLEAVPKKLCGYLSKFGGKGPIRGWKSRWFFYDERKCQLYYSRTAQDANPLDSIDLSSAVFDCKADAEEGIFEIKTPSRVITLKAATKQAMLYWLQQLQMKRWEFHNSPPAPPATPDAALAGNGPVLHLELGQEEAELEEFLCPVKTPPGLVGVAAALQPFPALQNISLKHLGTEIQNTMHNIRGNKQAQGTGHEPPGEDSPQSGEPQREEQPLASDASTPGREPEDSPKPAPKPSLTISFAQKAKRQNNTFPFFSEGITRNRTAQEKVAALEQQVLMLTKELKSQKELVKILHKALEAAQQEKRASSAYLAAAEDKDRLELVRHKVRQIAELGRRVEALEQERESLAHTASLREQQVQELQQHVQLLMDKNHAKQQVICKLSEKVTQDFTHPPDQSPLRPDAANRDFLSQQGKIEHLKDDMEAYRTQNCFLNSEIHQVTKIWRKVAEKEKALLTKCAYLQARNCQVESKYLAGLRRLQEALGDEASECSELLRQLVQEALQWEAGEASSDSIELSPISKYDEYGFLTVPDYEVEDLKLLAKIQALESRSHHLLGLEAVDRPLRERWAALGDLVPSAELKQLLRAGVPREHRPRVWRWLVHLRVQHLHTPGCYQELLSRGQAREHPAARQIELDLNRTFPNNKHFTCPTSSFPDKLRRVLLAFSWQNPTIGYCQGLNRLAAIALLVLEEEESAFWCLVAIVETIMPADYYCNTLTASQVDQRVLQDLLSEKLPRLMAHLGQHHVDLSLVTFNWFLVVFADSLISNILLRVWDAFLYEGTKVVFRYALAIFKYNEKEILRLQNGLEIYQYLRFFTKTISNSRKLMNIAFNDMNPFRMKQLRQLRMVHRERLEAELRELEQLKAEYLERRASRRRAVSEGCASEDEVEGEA
UniProt Q5VWP2: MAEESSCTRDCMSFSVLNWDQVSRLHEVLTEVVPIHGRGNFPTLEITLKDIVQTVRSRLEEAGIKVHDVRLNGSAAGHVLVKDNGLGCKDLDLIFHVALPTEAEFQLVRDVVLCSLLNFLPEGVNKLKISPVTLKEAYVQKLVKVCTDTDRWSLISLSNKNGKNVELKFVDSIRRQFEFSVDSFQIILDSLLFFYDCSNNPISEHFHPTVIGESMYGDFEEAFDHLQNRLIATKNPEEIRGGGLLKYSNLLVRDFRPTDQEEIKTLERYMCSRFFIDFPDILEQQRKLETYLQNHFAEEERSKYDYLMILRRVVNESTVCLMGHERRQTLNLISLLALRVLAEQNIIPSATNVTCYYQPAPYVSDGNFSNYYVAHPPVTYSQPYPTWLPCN
UniProt Q9BW92: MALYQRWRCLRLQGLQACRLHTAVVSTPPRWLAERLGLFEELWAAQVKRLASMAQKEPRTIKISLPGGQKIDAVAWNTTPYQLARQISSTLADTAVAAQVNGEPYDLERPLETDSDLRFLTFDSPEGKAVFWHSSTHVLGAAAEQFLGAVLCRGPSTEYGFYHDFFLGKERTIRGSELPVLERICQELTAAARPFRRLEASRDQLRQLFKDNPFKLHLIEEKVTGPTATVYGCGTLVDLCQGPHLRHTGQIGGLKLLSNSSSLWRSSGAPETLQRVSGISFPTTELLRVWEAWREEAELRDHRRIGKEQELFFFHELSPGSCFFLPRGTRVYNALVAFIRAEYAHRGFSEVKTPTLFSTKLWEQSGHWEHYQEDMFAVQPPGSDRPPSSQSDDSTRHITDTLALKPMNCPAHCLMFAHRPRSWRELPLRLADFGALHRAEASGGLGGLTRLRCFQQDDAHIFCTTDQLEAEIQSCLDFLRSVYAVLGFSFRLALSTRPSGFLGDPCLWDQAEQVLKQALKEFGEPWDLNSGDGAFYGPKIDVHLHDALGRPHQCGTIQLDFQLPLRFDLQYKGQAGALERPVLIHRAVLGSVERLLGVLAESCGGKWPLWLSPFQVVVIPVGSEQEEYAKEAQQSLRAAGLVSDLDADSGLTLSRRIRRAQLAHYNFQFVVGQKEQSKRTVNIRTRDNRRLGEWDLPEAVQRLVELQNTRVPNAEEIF
UniProt Q5JUR7: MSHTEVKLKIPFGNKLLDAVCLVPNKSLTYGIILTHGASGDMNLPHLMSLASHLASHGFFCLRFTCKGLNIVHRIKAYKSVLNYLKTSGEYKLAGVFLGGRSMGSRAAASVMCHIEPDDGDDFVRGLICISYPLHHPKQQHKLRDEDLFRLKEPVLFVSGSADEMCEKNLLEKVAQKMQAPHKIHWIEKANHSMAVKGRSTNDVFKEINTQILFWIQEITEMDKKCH
UniProt Q96BW9: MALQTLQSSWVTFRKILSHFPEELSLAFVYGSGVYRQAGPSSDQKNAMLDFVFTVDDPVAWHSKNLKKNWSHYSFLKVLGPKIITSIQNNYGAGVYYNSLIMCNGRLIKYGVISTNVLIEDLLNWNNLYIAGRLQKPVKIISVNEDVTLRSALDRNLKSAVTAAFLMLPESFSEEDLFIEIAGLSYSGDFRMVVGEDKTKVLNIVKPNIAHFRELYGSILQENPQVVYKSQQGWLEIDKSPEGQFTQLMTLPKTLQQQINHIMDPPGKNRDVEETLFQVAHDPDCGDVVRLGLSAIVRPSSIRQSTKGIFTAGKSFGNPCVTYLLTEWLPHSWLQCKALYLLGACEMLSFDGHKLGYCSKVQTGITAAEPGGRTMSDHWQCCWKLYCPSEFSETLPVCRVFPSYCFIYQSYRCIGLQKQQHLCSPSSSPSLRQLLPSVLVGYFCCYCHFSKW
UniProt P37837: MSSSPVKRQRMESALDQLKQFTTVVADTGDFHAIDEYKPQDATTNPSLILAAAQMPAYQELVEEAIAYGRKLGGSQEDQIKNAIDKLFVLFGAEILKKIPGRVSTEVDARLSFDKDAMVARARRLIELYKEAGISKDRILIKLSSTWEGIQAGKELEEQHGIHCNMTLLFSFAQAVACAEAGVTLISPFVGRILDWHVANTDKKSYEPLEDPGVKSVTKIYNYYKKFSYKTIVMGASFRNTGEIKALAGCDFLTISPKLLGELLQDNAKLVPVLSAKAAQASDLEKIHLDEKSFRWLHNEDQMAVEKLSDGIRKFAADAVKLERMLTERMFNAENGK
UniProt O43435: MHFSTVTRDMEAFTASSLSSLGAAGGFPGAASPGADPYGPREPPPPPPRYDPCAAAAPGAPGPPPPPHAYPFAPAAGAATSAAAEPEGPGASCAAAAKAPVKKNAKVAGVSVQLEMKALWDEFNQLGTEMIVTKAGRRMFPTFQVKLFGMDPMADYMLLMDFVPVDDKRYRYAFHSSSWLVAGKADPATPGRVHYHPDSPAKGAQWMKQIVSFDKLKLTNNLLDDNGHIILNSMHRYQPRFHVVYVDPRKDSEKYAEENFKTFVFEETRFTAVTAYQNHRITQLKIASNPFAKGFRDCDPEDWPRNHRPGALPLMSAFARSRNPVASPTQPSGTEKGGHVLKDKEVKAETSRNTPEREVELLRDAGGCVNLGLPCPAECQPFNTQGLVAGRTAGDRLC

Legend:
Assay in all cases: log2 fold change, soluble protein after heating vs DMSO (PISA); higher = thermal stabilisation; K562 lysate, 10 uM; active = over 0.2 and 3.5 SD of the protein, either way, in both replicates (recomputed)
[1] = compound: C1=CC=C(C=C1)[C@H](COC2=CC3=C(C=C2)NC(=O)N3)NC(=O)C4=CC=CN(C4=O)CC5=CC(=C(C=C5)F)F
Method in brief: (§1)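 To prepare the extract, K562 pellets were dounce-homogenised in PBS pH 7.4 with 1 mM MgCl2, giving crude material at 1 mg/mL protein. This was treated with 10 μM compound for 30 min, then heated in aliquots for 3 min over 48°C-58°C before pooling and addition of NP-40 to 0.5% at 4°C. Centrifugation at 21,000xg for 90 min left soluble protein in the supernatant, which TMTpro 16plex LC-MS/MS quantified with equalised channel sums. Results are log-two fold changes in thermal stability compared with solvent controls, from duplicates.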

[2] = compound: CC1=C(SC2=C1C(=N[C@H](C3=NN=C(N32)C)CC(=O)N)C4=CC=C(C=C4)Cl)C
Method in brief: as §1

[3] = compound: CC1=C2C(=CC=C1)N=C(N(C2=O)C3=CC=CC=C3C)CN4C=NC5=C(N=CN=C54)N
Method in brief: as §1

[4] = compound: Cc1sc2c(c1C)C(c1ccc(Cl)cc1)=N[C@@H](CC(=O)OC(C)(C)C)c1nnc(C)n1-2
Method in brief: as §1

[5] = compound: c1ccc([C@@H]2C[C@H]2NC2CCNCC2)cc1
Method in brief: as §1

Measured: log2 fold change

TBC1D7 (UniProt Q9P0N9)
inactive: [1] -0.01 | [2] -0.002 | [3] 0.042 | [4] 0.051 | [5] -0.084

TFAM (UniProt Q00059)
inactive: [1] 0.003 | [2] 0.041 | [3] -0.046 | [4] 0.024 | [5] 0.037

TFE3 (UniProt P19532)
inactive: [1] -0.069 | [2] -0.021 | [3] 0.067 | [4] -0.051 | [5] -0.034

TBC1D24 (UniProt Q9ULP9)
inactive: [1] 0.025 | [2] 0.046 | [3] 0.023 | [4] 0.01 | [5] 0.033

Reprinted from the listing (two entries):
TBC1D7 (UniProt Q9P0N9)
inactive: [1] -0.01 | [2] -0.002 | [3] 0.042 | [4] 0.051 | [5] -0.084

TFAM (UniProt Q00059)
inactive: [1] 0.003 | [2] 0.041 | [3] -0.046 | [4] 0.024 | [5] 0.037

Going on with the list.

TAF6L (UniProt Q9Y6J9)
inactive: [1] 0.011 | [2] -0.027 | [3] -0.094 | [4] -0.02 | [5] 0.061

TAF9B (UniProt Q9HBM6)
inactive: [1] -0.22 | [2] -0.003 | [3] 0.144 | [4] 0.082 | [5] -0.092

TAOK1 (UniProt Q7L7X3)
inactive: [1] 0.057 | [2] 0.021 | [3] 0.014 | [4] -0.031 | [5] 0.106

TCP1 (UniProt P17987)
inactive: [1] -0.007 | [2] 0.009 | [3] -0.011 | [4] 0.007 | [5] -0.009

TARBP2 (UniProt Q15633)
inactive: [1] 0.001 | [2] -0.003 | [3] -0.003 | [4] -0.019 | [5] 0.051

TARSL2 (UniProt A2RTX5)
inactive: [1] -0.009 | [2] 0 | [3] 0.041 | [4] -0.017 | [5] 0.01

TBC1D4 (UniProt O60343)
inactive: [1] -0.025 | [2] 0.01 | [3] 0.018 | [4] -0.022 | [5] -0.027

TELO2 (UniProt Q9Y4R8)
inactive: [1] -0.073 | [2] -0.012 | [3] -0.019 | [4] 0.056 | [5] 0.025

TBPL1 (UniProt P62380)
inactive: [1] 0.055 | [2] 0.061 | [3] 0.008 | [4] 0.041 | [5] 0.028

TCF12 isoform 3 (UniProt Q99081)
inactive: [1] 0.062 | [2] -0.072 | [3] 0.014 | [4] -0.048 | [5] -0.046

TFIP11 (UniProt Q9UBB9)
inactive: [1] -0.033 | [2] -0.022 | [3] 0.007 | [4] -0.002 | [5] 0.044

TFDP1 (UniProt Q14186)
inactive: [1] -0.05 | [2] 0.106 | [3] -0.039 | [4] 0.104 | [5] 0.089

TAX1BP3 (UniProt O14907)
inactive: [1] -0.242 | [2] 0.264 | [3] -0.02 | [4] 0.179 | [5] -0.028

TFR2 (UniProt Q9UP52)
inactive: [1] 0.055 | [2] 0.015 | [3] 0.019 | [4] -0.055 | [5] -0.023

TBC1D2 (UniProt Q9BYX2)
inactive: [1] 0.01 | [2] -0.041 | [3] 0.02 | [4] 0.029 | [5] 0.01

TCF3 (UniProt P15923)
inactive: [1] -0.029 | [2] 0.006 | [3] -0.004 | [4] -0.032 | [5] -0.08

TET2 (UniProt Q6N021)
inactive: [1] 0.017 | [2] 0.034 | [4] -0.024

TCF25 (UniProt Q9BQ70)
inactive: [1] -0.061 | [2] -0.017 | [3] -0.082 | [4] 0.089 | [5] 0.027

TDRD7 (UniProt Q8NHU6)
inactive: [1] 0.038 | [2] 0.054 | [3] 0.005 | [4] -0.021 | [5] 0.038

TATDN3 isoform 3 (UniProt Q17R31)
inactive: [1] 0.008 | [2] 0.017 | [3] 0.013 | [4] -0.132 | [5] -0.084

TDP2 isoform 2 (UniProt O95551)
inactive: [1] 0.022 | [2] 0.042 | [3] -0.006 | [4] 0.008 | [5] 0.028

TASOR2 (UniProt Q5VWN6)
inactive: [1] 0.218 | [2] -0.06 | [4] -0.092

TFB1M (UniProt Q8WVM0)
inactive: [1] 0.043 | [2] 0.055 | [3] 0.065 | [4] -0.006 | [5] -0.025

TCOF1 isoform 4 (UniProt Q13428)
inactive: [1] 0.014 | [2] 0.013 | [3] -0.003 | [4] -0.014 | [5] -0.043

TENT5C (UniProt Q5VWP2)
inactive: [1] -0.06 | [2] 0.002 | [3] 0.073 | [5] -0.037

TARS2 (UniProt Q9BW92)
inactive: [1] -0.062 | [2] -0.059 | [3] 0.012 | [4] 0.014 | [5] 0.025

TEX30 (UniProt Q5JUR7)
inactive: [1] -0.074 | [2] 0.066 | [3] -0.006 | [4] -0.1 | [5] -0.038

TAMM41 isoform 3 (UniProt Q96BW9)
inactive: [1] -0.12 | [2] -0.02 | [3] -0.079 | [4] -0.011 | [5] 0.023

TBCE (UniProt Q15813)
inactive: [1] 0.008 | [2] -0.027 | [3] 0.014 | [4] 0.008 | [5] 0.015

TFRC (UniProt P02786)
inactive: [1] -0.017 | [2] 0.014 | [3] -0.001 | [4] -0.011 | [5] 0.006

TANK (UniProt Q92844)
inactive: [1] 0.04 | [2] -0.088 | [3] -0.023 | [4] -0.079 | [5] -0.025

TBC1D23 (UniProt Q9NUY8)
inactive: [1] 0.007 | [2] 0.01 | [3] -0.017 | [4] 0.016 | [5] -0.024

TDRD3 isoform 3 (UniProt Q9H7E2)
inactive: [1] 0.082 | [2] 0.037 | [3] 0.027 | [4] 0.065 | [5] -0.01

TCAF1 (UniProt Q9Y4C2)
inactive: [1] -0.026 | [2] 0.012 | [3] 0.05 | [4] 0.001 | [5] 0.05

TAF8 isoform 2 (UniProt Q7Z7C8)
inactive: [1] 0.002 | [2] 0 | [3] 0.043 | [4] -0.028 | [5] -0.036

TALDO1 (UniProt P37837)
inactive: [1] 0.002 | [2] 0.012 | [3] -0.024 | [4] 0.037 | [5] 0.037

TFG (UniProt Q92734)
inactive: [1] 0.025 | [2] 0.008 | [3] -0.015 | [4] 0.031 | [5] -0.025

TARS1 (UniProt P26639)
inactive: [1] -0.003 | [2] -0.003 | [3] 0.002 | [4] 0.038 | [5] 0.019

TCIRG1 (UniProt Q13488)
inactive: [1] 0.066 | [2] -0.022 | [3] -0.1 | [4] 0.065 | [5] 0.004

TES (UniProt Q9UGI8)
inactive: [1] 0.024 | [2] 0.014 | [3] -0.002 | [4] -0.017 | [5] -0.082

TBX1 isoform 3 (UniProt O43435)
inactive: [1] 0.169 | [2] 0.021 | [3] 0.152 | [5] 0.074

TFPI (UniProt P10646)
inactive: [1] 0.053 | [2] -0.116 | [3] -0.16 | [5] 0.269

TAPT1 (UniProt Q6NXT6)
inactive: [1] -0.004 | [2] -0.023 | [3] 0.092 | [4] -0.07 | [5] -0.128

TFAP4 (UniProt Q01664)
inactive: [1] 0.018 | [2] -0.069 | [3] 0.012 | [5] 0.081

TDG (UniProt Q13569)
inactive: [1] -0.005 | [2] 0.062 | [3] 0.079 | [4] -0.042 | [5] -0.097

TBK1 (UniProt Q9UHD2)
inactive: [1] -0.012 | [2] 0.021 | [3] -0.031 | [4] -0.003 | [5] -0.023

TASP1 (UniProt Q9H6P5)
inactive: [1] 0.027 | [2] 0.205 | [4] 0.059

TERF2 (UniProt Q15554)
inactive: [1] 0.017 | [2] 0.002 | [3] 0.038 | [4] -0.008 | [5] 0.017

Fetched one by one from the entries so far (2):
TES (UniProt Q9UGI8)
inactive: [1] 0.024 | [2] 0.014 | [3] -0.002 | [4] -0.017 | [5] -0.082

TARSL2 (UniProt A2RTX5)
inactive: [1] -0.009 | [2] 0 | [3] 0.041 | [4] -0.017 | [5] 0.01

Further results follow.

TFPT (UniProt P0C1Z6)
inactive: [1] -0.176 | [2] -0.078 | [4] -0.052

TBCD (UniProt Q9BTW9)
inactive: [1] -0.028 | [2] 0.025 | [3] 0.034 | [4] -0.013 | [5] -0.005

TEAD2 isoform 4 (UniProt Q15562)
inactive: [3] -0.346 | [4] 0.072
